# Data reported in PubChem BioAssay AID504467 (National Center for Advancing Translational Sciences (NCATS), 2011).
# The campaign covered roughly 330,000 compounds. About 7,700 (2.3%) were called active. The inconclusive results got no clear call from the source; some entries with a clear call stand among them for comparison. Calls follow the shape of the dose curve; as a rule, active = well fitted inhibition curve with a large enough effect; inconclusive = small, poorly fitted or top-dose-only effect, or effect the other way; inactive = flat fitted curve, though single readings scatter. A potency beside an inconclusive call is a rough fit, not a confirmed value.
# Experiment: qHTS screen for small molecules that inhibit ELG1-dependent DNA repair in human embryonic kidney (HEK293T) cells expressing luciferase-tagged ELG1; also: nearly all actives have a fitted effect of over 55% in size
# Details: HEK293T ELG1-luciferase reporter, luminescence, 16 h, DNA damage induced by 5-fluorouridine; activity change, negative = inhibition: at 46.1 µM (top of the series)
# In short: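 Quantitative HTS, concentration-response format. 2,000 cells/well co-treated with 5-fluorouridine and compound, 16 hr in 5% CO2 at 37 °C; ONE-Glo luminescence read after 30 min.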
# % is scaled to controls: 0 for no effect and ±100 for the full control effect; potency is read from the fitted curve at half-maximal effect.
SMILES,Potency,"activity change, negative = inhibition"
CC(C)(C)NC(=O)COC(=O)c1snc(C(=O)NC2CCCCC2)c1N,"inconclusive: 2.51 µM [inhibitor, full curve, poor fit]",–
COc1c(O)cccc1-c1nnn(CCC(=O)OCC(=O)c2ccccc2)n1,"inconclusive: 29.1 µM [activator, single point]",–
Cc1csc2ncnc(NCCc3ccccn3)c12,active: 1.46 µM,–
Cc1cc(C)cc(NC(=O)Cn2c(SCc3cc(C)ccc3C)nc3ccncc32)c1,"inconclusive: 16.4 µM [activator, partial curve]",–
CCCCC(=O)NC(c1cccc([N+](=O)[O-])c1)c1c(OC(C)=O)ccc2ccccc12 (stereo unspecified),"inconclusive: 29.1 µM [inhibitor, single point]",–
O=S(=O)(c1ccc(F)cc1)n1ccc2cccnc21,"inconclusive: 20.6 µM [activator, single point]",–
COc1cccc(OCCn2cc(/C=N/NC(=O)c3ccncc3)c3ccccc32)c1,"inconclusive: 20.6 µM [inhibitor, single point]",–
COc1c(F)c(F)c(C(=O)Nc2ccc(N3CCN(Cc4ccccc4)CC3)cc2)c(F)c1F,"inconclusive: 20.6 µM [inhibitor, single point]",–
COc1ccccc1NC(=S)N(Cc1cccnc1)Cc1ccccc1Cl,–,inactive: 2.27%
CCc1ccccc1NC(=O)CN(C)C(=O)Cn1ncc(Cl)c(Cl)c1=O,"inconclusive: 20.6 µM [inhibitor, single point]",–
O=C(Nc1ccc(Br)cc1F)c1ccc2c(c1)OCCO2,"inconclusive: 2.06 µM [activator, partial curve]",–
CCOC(=O)N1CCN(CC(O)COc2cc(C)cc(C)c2)CC1 (stereo unspecified),–,inactive: 8.65%
CCc1nc(SCC(=O)Nc2ccccc2Cl)n[nH]1,–,inactive: 5.42%
CCn1cnc2cc(NCc3nc4ccccc4n3Cc3ccccc3)ccc21,"inconclusive: 2.31 µM [activator, partial curve]",–
O=C(Nc1ccc(Cl)cc1)C1CCCN1C(=O)NCc1ccccc1 (stereo unspecified),–,inactive: 11.2%
N#C/C(=C\c1ccc(OCc2ccccc2)cc1)C(=O)Nc1ccc(C(=O)O)cc1,"inconclusive: 23.1 µM [activator, partial curve]",–
Cc1cc(C)nc(-n2nc(C)cc2NC(=O)c2cccc(S(=O)(=O)N(C)C)c2)n1,–,inactive: -12%
O=C(Nc1ncc(Br)s1)C(Cc1ccccc1)n1cccc1 (stereo unspecified),"inconclusive: 25.9 µM [inhibitor, single point]",–
COc1cc(NC(=O)CN2C(=O)NC(c3ccccc3)(c3ccccc3)C2=O)c(C)cc1[N+](=O)[O-],"inconclusive: 32.6 µM [inhibitor, single point]",–
CN(c1ccc2nc3ccccc3c(=O)n2n1)C1CCCCC1,"inconclusive: 0.082 µM [activator, full curve, poor fit]",–
CC(OC(=O)Cn1c(C(F)(F)F)nc2ccccc21)C(=O)N1CCCc2ccccc21 (stereo unspecified),–,inactive: -9.79%
COCCn1c(SCc2nc3ccccc3c(=O)[nH]2)nnc1-c1ccncc1,"inconclusive: 1.3 µM [activator, partial curve, poor fit]",–
O=C(NNC(=O)c1ccccc1Cl)c1cccs1,"inconclusive: 23.1 µM [activator, partial curve]",–
COc1ccc(CCNC(=O)CN2c3cccc4cccc(c34)S2(=O)=O)cc1,"inconclusive: 29.1 µM [inhibitor, single point]",–

# Sorted by count of non-hydrogen atoms (descending): 3 of the compounds above
SMILES,Potency,"activity change, negative = inhibition"
CCn1cnc2cc(NCc3nc4ccccc4n3Cc3ccccc3)ccc21,"inconclusive: 2.31 µM [activator, partial curve]",–
COc1c(O)cccc1-c1nnn(CCC(=O)OCC(=O)c2ccccc2)n1,"inconclusive: 29.1 µM [activator, single point]",–
CN(c1ccc2nc3ccccc3c(=O)n2n1)C1CCCCC1,"inconclusive: 0.082 µM [activator, full curve, poor fit]",–

# (cont.)

SMILES,Potency,"activity change, negative = inhibition"
O=C(CCNC(=O)c1ccco1)NCCc1c[nH]c2ccccc12,–,inactive: -3.47%
COc1ccc(N2CCN(C(CNS(=O)(=O)c3ccc(C)cc3)c3ccccc3)CC2)cc1 (stereo unspecified),"inconclusive: 18.3 µM [inhibitor, partial curve, poor fit]",–
CCOc1ccccc1/C=C(/C#N)C(N)=O,"inconclusive: 25.9 µM [activator, partial curve, poor fit]",–
CCCS(=O)(=O)c1nc(S(=O)(=O)c2ccc(C)cc2)c(N2CCN(CC)CC2)s1,–,inactive: -4.32%
O=C(CCCc1nc(-c2ccc(Cl)cc2)no1)NC1CCCCC1,"inconclusive: 4.61 µM [inhibitor, full curve, poor fit]",–
Cc1onc(C(=O)Nc2sc3c(c2C(N)=O)CCCC3)c1[N+](=O)[O-],–,inactive: 0%
COc1ccc2oc(=N)c(C(=O)Nc3ccc(F)cc3)cc2c1,–,inactive: 0%
O=C(N/N=C/c1ccccn1)c1ccc([N+](=O)[O-])cc1Cl,"inconclusive: 28.2 µM [activator, single point]",–
CC(C)C(OC(=O)c1oc2ccccc2c1CSC1CCCCC1)C(=O)NC(N)=O (stereo unspecified),–,inactive: -2.05%
Nc1ccccc1-c1nc2ccccc2[nH]c1=O,"inconclusive: 20.6 µM [activator, partial curve]",–
CCCCCCC1/C(=N\NC(=O)c2ccccc2)CCC1C(=O)OC (stereo unspecified),–,inactive: 9.91%
Cn1nnc2cc(C(=O)NC(C)(C)C)ccc21,"inconclusive: 23.1 µM [activator, partial curve, poor fit]",–
Cc1nc2ccn(Cc3ccccc3)c(=O)c2cc1C(=O)N1CCN(c2ccc(F)cc2)CC1,active: 6.51 µM,–
Cc1c(NC(=O)c2cnn3c(C(F)(F)F)cc(-c4ccco4)nc23)c(=O)n(-c2ccccc2)n1C,"inconclusive: 11.6 µM [inhibitor, partial curve]",–
Cc1cccc(OCC2=N/C(=C\N(C)C)C(=O)O2)c1,"inconclusive: 35.5 µM [activator, single point]",–
O=S(=O)(c1ccc(N2CC=C(c3ccccc3)CC2)nc1)N1CCCC1,"inconclusive: 16.4 µM [inhibitor, single point]",–
O=C(Nc1cccc(S(=O)(=O)N2CCCCC2)c1)c1cc(=O)[nH]c2ccccc12,active: 25.9 µM,–
CC(C)c1cccc(-c2ccc3c(c2)S(=O)(=O)c2cccc(C(=O)NCc4ccccc4)c2C3=O)c1,"inconclusive: 2.91 µM [inhibitor, partial curve]",–
COC(=O)C1=C(O)/C(=C\c2cc(C)n(-c3ccccc3F)c2C)N=C1C,–,inactive: -3.38%
COc1ccc(CNC(=O)N2CCN(c3ccccc3)CC2)cc1,–,inactive: -10.2%
CC[C@@H]1CCCCc2ccccc2[C@@H](C(=O)C[C@@H](O)CC(C)=O)OC1=O,–,inactive: -1.32%
O=C(NC1CCCCC1)C(c1ccc(Cl)cc1)N(C(=O)c1cnccn1)c1ccc2c(c1)OCO2 (stereo unspecified),–,inactive: -8.45%
CCN1C(=O)[C@H]2[C@@H](c3ccc(-c4ccc(OC)cc4)c(OC)c3)N[C@@](Cc3ccccc3)(C(=O)OC)[C@H]2C1=O,–,inactive: 17.2%
CC(=O)Nc1cc2nc(C)n(Cc3ccccc3[N+](=O)[O-])c2nc1C,–,inactive: 11.9%

SMILES,Potency,"activity change, negative = inhibition"
O=C1COC(c2ccccc2)=CN1Cc1ccccc1,–,inactive: 19.7%
CCN1CCN(Cc2oc(CO)cc(=O)c2O)CC1,"inconclusive: 23.1 µM [activator, partial curve, poor fit]",–
COc1cc(CNc2ccc(N3CCOCC3)c(C(=O)O)c2)ccc1OCC(N)=O,"inconclusive: 29.1 µM [activator, single point]",–
COc1ccc(/C=N/Nc2cc(N(C)C)nc(N(C)C)n2)cc1,"inconclusive: 29.1 µM [inhibitor, single point]",–
COc1ccc(OC)c(NC(=O)CSc2nc3ccccc3c3nc4ccccc4n23)c1,"inconclusive: 16.4 µM [activator, single point]",–
N#C/C(=C(/O)c1ccc([N+](=O)[O-])s1)c1nc2ccccc2[nH]1,active: 2.06 µM,–
COC(=O)c1c(NC(=O)COC(=O)[C@@H](NS(=O)(=O)c2ccccc2)C(C)C)sc2c1CCC2,active: 25.9 µM,–
Cc1nnc(NC(=O)CSc2nc3ccccc3o2)s1,"inconclusive: 23.1 µM [activator, single point]",–
COc1ccccc1CNC(=O)c1ccccc1NC(=O)C1=C(C)OCCS1,"inconclusive: 25.9 µM [inhibitor, single point]",–
COc1ccc(-n2nc(C(=O)NCC(=O)N3CCCCC3)c3ccccc3c2=O)c(OC)c1,"inconclusive: 20.6 µM [activator, partial curve]",–
COc1ccc(NS(=O)(=O)c2cc(C(=O)N3CCN(C(C)=O)CC3)ccc2Cl)cc1,–,inactive: 5.3%
COc1ccc2cc(CCNC(=O)C3CC3)c(=O)[nH]c2c1,"inconclusive: 16.4 µM [activator, partial curve]",–
COc1ccc2oc(=O)c(/C(C)=N/NC(=O)c3ccncc3)cc2c1,–,inactive: -2.88%
Cc1cccc(N2C(=O)CC(N(O)c3ccccc3)C2=O)c1 (stereo unspecified),"inconclusive: 16.4 µM [activator, partial curve]",–
Cc1cc(C)c(NC(=O)CSc2nnc(CN3CCOCC3)n2C)c(C)c1,–,inactive: 2.71%
Cc1cc(SCc2ccc([N+](=O)[O-])cc2)nc(=O)[nH]1,–,inactive: 14.5%
Cc1ccccc1Cn1cc(S(=O)(=O)CC(=O)Nc2nccs2)c2ccccc21,"inconclusive: 32.6 µM [inhibitor, single point]",–
CC1Cc2ccccc2N1C(=O)CNCCCN(C)C (stereo unspecified),"inconclusive: 29.1 µM [activator, single point]",–
CC(=O)c1cccc(N(C(=O)CNC(=O)c2ccco2)C(C(=O)NCC2CCCO2)c2ccccc2)c1 (stereo unspecified),–,inactive: 7.54%
CC1CN(CCc2ccccc2)c2nc3c(c(=O)n(C)c(=O)n3C)n2C1 (stereo unspecified),"inconclusive: 16.4 µM [inhibitor, single point]",–
Cc1ccc(NC(=O)COCC(=O)Nc2ccc(F)cc2)cc1,–,inactive: -11%
Cn1c(N)c(C(=O)COC(=O)C2CCC(C(C)(C)C)CC2)c(=O)n(C)c1=O (stereo unspecified),"inconclusive: 20.6 µM [inhibitor, single point]",–
CC(=O)Nc1ccc(S(=O)(=O)Oc2ccccc2N2CCCCC2)cc1,active: 8.2 µM,–

# Structural class: those above with a nitro group on carbon.
SMILES,Potency,"activity change, negative = inhibition"
CCCCC(=O)NC(c1cccc([N+](=O)[O-])c1)c1c(OC(C)=O)ccc2ccccc12 (stereo unspecified),"inconclusive: 29.1 µM [inhibitor, single point]",–
COc1cc(NC(=O)CN2C(=O)NC(c3ccccc3)(c3ccccc3)C2=O)c(C)cc1[N+](=O)[O-],"inconclusive: 32.6 µM [inhibitor, single point]",–
Cc1onc(C(=O)Nc2sc3c(c2C(N)=O)CCCC3)c1[N+](=O)[O-],–,inactive: 0%
O=C(N/N=C/c1ccccn1)c1ccc([N+](=O)[O-])cc1Cl,"inconclusive: 28.2 µM [activator, single point]",–
CC(=O)Nc1cc2nc(C)n(Cc3ccccc3[N+](=O)[O-])c2nc1C,–,inactive: 11.9%
N#C/C(=C(/O)c1ccc([N+](=O)[O-])s1)c1nc2ccccc2[nH]1,active: 2.06 µM,–
Cc1cc(SCc2ccc([N+](=O)[O-])cc2)nc(=O)[nH]1,–,inactive: 14.5%
